Reference: patent US4766114A, “Tricyclic compound called 5-((3-chloro-6-methyl-5,5-dioxo-6,11-dihydro-dibenzo (c,f) (1,2)thiazepin-11-yl)-amino) pentanoic acid” (ADIR Et Compagnie, priority 1986, dated 1988)

What was measured:
[1] = test system: reserpine-induced hypothermia in the mouse; test: Effects on reserpine-induced hypothermia in the mouse; format: in vivo, mouse (NMRI); conditions: 50 mg.kg^-1 IP; rectal temperature 4 hours after reserpine 2 mg.kg^-1 IP; controls 24.7 ± 0.88
Procedure: This study was carried out on experimental groups of 10 NMRI mice (IFFA-CREDO) fasted for 18 hours. […] One hour later, all the animals were given an intraperitoneal injection of 2 mg.kg^-1 of reserpine. Hypothermia was evaluated 4 hours after the injection of reserpine by measuring the rectal temperature using an electric thermometer.

[2] = test system: aggressivity of isolated mice; test: Effects on the aggressivity of isolated mice; format: in vivo, mouse (male CD); conditions: 10 mg.kg^-1 IP, 30 minutes before test; 3 minute test; water controls 6.7 ± 4.7 (ATAH), 5.4 ± 2.8 (formula I)
Procedure: The male CD mice (Charles RIVER) used in this study were housed in small (18×10×10 cm) individual cages with the walls painted black, with one mouse per cage, for several months, at a constant temperature of 21° C. and in a light-darkness cycle of 12 hours. The average weight of the mice at the time of the study was 45 g.
Each experimental group comprised 10 couples of mice previously selected for their aggressivity. The aggressivity test was carried out on non-fasting animals. The "intruding" mouse of each couple was placed in the cage containing the other mouse for a 3 minute period.
The product was administered by the intraperitoneal route, 30 minutes before the test.

[3] = test system: tetrabenazine-induced ptosis in the mouse; test: Effects on tetrabenazine-induced ptosis in the mouse; format: in vivo, mouse (male CD); conditions: 25 mg.kg^-1 IP
Procedure: Male CD mice (Charles River), of average weight 23 g, were distributed in groups of 12 animals. […] The dose of products tested was 25 mg.kg^-1. The animals were observed individually 5, 25, 35 and 55 minutes after the injection of the tetrabenazine and the intensity of the ptosis was evaluated using a 0 to 4 rating scale.

[4] = test system: reserpine-induced ptosis in the mouse; test: Effects on reserpine-induced ptosis in the mouse; format: in vivo, mouse (male NMRI); conditions: 25 mg.kg^-1 IP, reserpine 2 mg.kg^-1 IV
Procedure: This experiment was carried out on groups of 20 male NMRI mice (IFFA-CREDO), with an average weight of 20±2 g. […] GOURET et al., in J. Pharmacol., 1977, 8, (3) p. 333-350.
One hour after the injection of the reserpine, the animals were placed on a 5 cm×5 cm square, wood platform for 20 seconds. Ptosis was considered to be positive if the animal's eyes remained shut during the 20 seconds after it was placed on the platform. On the other hand, the animal was considered to be protected if the eyes were not completely closed during the 20 seconds following the moment when it was placed on the platform.

`CN1c2ccccc2C(NCCCCCCC(=O)O)c2ccc(Cl)cc2S1(=O)=O` (centres unmarked) [TAHA, 7-[(3-chloro-6-methyl-5,5-dioxo-6,11-dihydro-dibenzo(c,f)(1,2)thiazepin-11-yl)-amino]heptanoic acid, reference compound] was tested, and the “FINAL TE[…] ± SD” value [1] was 27.1 ± 1.40, the “MEAN NUMBER OF ATTACKS ± SD” value [2] was 7.2 ± 4.6 and the “% controls (% change of the mean ptosis scores in comparison with the controls), 5 MINUTES” value ([3]; 5 minutes after tetrabenazine 20 mg.kg^-1) was -62.5%. For the same compound, the “MEAN VALUE OF THE PTOSIS INTENSITY SCORE ± SD, 5 MINUTES” value ([3]; 5 minutes after tetrabenazine 20 mg.kg^-1, 0 to 4 scale, controls 1.33 ± 0.65) was 0.50 ± 0.52, the “% controls (% change of the mean ptosis scores in comparison with the controls), 25 MINUTES” value ([3]; 25 minutes after tetrabenazine 20 mg.kg^-1) was -26% and the “MEAN VALUE OF THE PTOSIS INTENSITY SCORE ± SD, 25 MINUTES” value ([3]; 25 minutes after tetrabenazine 20 mg.kg^-1, 0 to 4 scale, controls 2.58 ± 0.51) was 1.92 ± 0.51. The “% controls (% change of the mean ptosis scores in comparison with the controls), 35 MINUTES” value ([3]; 35 minutes after tetrabenazine 20 mg.kg^-1) was -21%, the “MEAN VALUE OF THE PTOSIS INTENSITY SCORE ± SD, 35 MINUTES” value ([3]; 35 minutes after tetrabenazine 20 mg.kg^-1, 0 to 4 scale, controls 2.83 ± 0.58) was 2.25 ± 0.45 and the “MEAN VALUE OF THE PTOSIS INTENSITY SCORE ± SD, 55 MINUTES” value ([3]; 55 minutes after tetrabenazine 20 mg.kg^-1, 0 to 4 scale, controls 3.08 ± 0.51) was 2.58 ± 0.51. The “antagonism of reserpine-induced ptosis (in words)” value [4] was “slightly antagonised” and the “animals protected from ptosis” value ([4]; 20 male NMRI mice per group) was 32%.
